Laboratory results: PubChem BioAssay AID1985 (Southern Research Specialized Biocontainment Screening …, 2009)

Tested on: S. Typhi PhoP-promoter GFP reporter, fluorescence, 4 h
Experiment: PhoP regulon inhibitor project modified counter assay, GFP fluorescence readout, dose response (AID 1985)

`CNCCCC12CCC(c3ccccc31)c1ccccc12` showed an IC50 of 145 µM.
